According to paper PMC6591413:
Results are given in words; binding and its absence hold for the method and conditions named. Binding seen in cells or lysates may run through a third protein. Some binding calls cover weakened binding; strength is not graded here.

Chains of the proteins cited; added tags and fusions are not shown.
UniProt P15863: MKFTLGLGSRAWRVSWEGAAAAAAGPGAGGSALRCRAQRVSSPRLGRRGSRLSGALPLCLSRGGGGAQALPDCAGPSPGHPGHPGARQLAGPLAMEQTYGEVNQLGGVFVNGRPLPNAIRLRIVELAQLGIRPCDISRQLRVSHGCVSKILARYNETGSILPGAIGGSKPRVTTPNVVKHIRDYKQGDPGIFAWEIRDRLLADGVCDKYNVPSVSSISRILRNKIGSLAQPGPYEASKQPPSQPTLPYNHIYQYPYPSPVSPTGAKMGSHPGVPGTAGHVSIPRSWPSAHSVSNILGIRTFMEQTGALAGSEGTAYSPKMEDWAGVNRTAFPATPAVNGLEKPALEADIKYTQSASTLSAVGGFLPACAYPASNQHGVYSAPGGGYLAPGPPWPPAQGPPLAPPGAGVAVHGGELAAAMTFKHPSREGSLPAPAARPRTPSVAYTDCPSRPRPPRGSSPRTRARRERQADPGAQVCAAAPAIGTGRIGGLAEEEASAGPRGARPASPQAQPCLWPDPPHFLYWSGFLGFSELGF
UniProt Q9UMN6: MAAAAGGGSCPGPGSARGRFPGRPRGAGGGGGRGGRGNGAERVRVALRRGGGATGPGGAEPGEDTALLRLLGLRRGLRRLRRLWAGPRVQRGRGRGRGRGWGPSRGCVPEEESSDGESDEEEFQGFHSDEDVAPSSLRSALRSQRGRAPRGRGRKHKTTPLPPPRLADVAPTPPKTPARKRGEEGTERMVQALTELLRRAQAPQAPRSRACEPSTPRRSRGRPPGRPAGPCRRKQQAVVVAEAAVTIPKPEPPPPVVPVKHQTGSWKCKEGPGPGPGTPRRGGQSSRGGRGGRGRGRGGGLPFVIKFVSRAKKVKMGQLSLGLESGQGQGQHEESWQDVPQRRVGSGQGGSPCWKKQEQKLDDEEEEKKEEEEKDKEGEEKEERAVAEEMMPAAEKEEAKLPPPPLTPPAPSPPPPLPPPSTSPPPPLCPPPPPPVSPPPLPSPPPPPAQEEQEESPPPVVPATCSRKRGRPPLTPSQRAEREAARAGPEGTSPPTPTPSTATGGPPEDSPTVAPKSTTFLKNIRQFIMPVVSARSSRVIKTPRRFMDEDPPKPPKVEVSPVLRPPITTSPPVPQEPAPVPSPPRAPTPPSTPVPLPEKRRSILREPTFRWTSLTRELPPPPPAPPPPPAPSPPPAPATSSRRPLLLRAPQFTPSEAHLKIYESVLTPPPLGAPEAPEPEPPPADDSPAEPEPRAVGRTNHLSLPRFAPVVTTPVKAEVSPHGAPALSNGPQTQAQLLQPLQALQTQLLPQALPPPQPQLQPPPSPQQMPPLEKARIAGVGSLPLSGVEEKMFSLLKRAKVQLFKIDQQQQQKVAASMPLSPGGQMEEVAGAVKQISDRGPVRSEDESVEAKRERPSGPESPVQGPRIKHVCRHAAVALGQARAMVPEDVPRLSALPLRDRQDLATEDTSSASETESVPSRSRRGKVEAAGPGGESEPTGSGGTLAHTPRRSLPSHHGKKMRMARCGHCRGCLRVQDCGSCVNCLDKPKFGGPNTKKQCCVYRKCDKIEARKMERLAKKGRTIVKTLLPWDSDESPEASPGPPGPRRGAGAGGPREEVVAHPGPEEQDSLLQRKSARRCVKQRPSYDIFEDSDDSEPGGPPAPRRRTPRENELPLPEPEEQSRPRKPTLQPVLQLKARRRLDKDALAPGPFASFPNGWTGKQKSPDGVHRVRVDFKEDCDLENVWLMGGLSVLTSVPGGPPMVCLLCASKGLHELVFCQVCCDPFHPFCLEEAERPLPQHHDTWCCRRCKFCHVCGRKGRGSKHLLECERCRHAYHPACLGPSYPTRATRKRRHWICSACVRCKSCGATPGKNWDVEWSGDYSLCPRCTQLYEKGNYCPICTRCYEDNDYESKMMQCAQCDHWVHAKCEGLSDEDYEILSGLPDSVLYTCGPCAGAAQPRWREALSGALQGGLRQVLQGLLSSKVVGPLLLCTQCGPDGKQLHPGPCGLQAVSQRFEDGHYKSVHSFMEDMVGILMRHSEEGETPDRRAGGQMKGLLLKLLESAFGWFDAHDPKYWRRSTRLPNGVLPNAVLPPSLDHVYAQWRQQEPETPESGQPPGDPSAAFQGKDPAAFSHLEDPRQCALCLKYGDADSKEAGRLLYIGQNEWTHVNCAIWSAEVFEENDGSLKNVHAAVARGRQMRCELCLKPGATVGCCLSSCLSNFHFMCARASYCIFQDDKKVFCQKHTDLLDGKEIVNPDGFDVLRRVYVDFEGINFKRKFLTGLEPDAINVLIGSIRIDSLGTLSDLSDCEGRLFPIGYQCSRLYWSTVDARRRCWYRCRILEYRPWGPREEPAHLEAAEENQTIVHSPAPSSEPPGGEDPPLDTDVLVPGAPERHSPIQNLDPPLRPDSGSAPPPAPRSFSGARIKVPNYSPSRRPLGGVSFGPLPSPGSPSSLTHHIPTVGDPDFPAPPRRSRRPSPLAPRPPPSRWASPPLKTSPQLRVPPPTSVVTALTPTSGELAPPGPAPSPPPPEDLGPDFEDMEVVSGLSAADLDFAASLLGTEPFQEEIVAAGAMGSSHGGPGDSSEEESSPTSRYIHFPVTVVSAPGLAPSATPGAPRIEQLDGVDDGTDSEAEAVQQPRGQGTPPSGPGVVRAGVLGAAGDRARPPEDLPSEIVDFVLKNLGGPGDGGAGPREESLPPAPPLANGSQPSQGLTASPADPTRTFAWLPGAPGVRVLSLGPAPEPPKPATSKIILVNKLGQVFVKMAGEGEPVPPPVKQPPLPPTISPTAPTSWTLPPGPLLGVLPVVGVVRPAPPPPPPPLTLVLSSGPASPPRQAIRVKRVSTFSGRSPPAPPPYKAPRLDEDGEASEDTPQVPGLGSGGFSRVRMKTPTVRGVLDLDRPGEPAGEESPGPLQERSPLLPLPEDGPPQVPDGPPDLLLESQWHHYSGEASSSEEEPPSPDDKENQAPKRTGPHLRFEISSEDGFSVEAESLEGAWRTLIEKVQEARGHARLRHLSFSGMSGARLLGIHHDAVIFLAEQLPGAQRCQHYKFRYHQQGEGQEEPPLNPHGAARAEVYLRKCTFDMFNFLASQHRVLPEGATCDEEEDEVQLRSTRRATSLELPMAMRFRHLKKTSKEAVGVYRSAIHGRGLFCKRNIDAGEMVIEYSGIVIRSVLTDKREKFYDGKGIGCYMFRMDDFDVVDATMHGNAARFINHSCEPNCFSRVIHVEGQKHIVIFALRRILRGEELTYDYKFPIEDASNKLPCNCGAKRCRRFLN
UniProt Q9UPS6: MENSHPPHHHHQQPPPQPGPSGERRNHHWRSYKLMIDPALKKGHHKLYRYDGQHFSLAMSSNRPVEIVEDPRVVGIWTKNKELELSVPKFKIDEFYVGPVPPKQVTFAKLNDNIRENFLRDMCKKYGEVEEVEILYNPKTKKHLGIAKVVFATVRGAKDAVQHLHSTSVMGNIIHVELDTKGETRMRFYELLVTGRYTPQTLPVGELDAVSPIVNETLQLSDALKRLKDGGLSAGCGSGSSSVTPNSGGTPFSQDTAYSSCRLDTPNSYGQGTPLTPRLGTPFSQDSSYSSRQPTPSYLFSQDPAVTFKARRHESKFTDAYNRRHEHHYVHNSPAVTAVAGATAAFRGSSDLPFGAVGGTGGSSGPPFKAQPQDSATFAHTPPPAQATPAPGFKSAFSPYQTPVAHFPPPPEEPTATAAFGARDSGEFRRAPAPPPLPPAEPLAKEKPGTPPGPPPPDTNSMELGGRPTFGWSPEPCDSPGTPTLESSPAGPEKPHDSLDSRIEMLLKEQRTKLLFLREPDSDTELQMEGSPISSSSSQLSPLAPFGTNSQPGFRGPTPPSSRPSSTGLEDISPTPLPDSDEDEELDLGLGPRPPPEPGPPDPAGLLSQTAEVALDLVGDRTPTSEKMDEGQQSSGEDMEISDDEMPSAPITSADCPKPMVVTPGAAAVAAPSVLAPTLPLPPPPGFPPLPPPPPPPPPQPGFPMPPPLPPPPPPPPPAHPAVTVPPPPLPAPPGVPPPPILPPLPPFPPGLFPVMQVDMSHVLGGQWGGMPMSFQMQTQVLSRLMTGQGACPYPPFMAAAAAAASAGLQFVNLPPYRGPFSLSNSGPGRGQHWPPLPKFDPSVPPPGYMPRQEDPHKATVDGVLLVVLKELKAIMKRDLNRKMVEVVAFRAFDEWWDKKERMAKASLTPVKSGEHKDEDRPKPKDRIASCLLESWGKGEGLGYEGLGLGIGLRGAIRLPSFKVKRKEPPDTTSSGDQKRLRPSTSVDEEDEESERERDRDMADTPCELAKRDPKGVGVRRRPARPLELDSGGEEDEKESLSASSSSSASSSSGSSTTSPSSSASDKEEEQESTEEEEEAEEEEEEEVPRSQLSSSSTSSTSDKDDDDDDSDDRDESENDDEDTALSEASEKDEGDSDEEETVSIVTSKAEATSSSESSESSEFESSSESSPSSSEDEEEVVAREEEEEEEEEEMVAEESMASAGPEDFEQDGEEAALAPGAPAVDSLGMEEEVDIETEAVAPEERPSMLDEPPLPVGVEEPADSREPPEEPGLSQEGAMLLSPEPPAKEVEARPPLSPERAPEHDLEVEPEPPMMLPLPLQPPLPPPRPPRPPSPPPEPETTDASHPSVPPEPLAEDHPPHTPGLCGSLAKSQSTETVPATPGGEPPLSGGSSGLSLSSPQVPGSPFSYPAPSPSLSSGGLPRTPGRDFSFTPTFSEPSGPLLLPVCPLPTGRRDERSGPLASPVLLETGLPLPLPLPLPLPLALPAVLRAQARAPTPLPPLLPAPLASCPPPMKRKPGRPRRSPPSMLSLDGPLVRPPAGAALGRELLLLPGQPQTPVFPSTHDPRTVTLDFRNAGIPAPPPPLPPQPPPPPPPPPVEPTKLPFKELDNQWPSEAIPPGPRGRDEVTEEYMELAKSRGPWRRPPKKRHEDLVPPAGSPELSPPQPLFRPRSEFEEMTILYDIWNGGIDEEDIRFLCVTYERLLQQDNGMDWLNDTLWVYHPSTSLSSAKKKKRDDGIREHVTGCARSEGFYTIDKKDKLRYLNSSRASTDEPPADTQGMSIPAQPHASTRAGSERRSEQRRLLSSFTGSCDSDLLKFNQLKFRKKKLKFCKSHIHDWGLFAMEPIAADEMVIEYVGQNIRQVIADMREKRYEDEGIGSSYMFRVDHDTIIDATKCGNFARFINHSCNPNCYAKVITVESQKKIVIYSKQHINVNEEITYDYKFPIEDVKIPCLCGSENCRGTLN

Target: Paired Box-1 (PAX1), FLAG-tagged, full-length cDNA in pCMV-Tag 2B (human) (UniProt P15863)
Assay: co-IP; anti-FLAG antibody used for immunoprecipitation of FLAG-PAX1; blots with antibodies against the histone H3K4 HMT complex and DNA demethylases (Fig. 5E)

binding | Substance
no binding | MLL1 (from UniProt Q03164 1-3969)
no binding | MLL4 (from UniProt Q9UMN6 1-2715)
no binding | SET1A (from UniProt O15047 1-1707)
binds | SET1B (from UniProt Q9UPS6 1-1966)
